Measured values as given in patent publication US20120079613A1.
Results are given in words; binding and its absence hold for the method and conditions named. Some binding calls cover weakened binding; strength is not graded here.

Sequences of proteins named here, by UniProt entry; tags and fusion partners are left off. A change or cut given only in a name is not applied to a line headed by its entry.
UniProt Q01147: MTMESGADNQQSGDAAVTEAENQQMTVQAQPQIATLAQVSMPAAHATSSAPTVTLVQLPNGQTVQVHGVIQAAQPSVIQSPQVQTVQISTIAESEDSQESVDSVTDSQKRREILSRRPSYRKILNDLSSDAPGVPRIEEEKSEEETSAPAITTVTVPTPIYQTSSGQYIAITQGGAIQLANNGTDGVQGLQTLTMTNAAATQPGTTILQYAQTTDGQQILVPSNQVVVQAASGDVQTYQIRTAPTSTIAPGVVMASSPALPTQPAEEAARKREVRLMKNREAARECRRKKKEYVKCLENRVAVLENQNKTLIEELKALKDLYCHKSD
UniProt Q9R1E0: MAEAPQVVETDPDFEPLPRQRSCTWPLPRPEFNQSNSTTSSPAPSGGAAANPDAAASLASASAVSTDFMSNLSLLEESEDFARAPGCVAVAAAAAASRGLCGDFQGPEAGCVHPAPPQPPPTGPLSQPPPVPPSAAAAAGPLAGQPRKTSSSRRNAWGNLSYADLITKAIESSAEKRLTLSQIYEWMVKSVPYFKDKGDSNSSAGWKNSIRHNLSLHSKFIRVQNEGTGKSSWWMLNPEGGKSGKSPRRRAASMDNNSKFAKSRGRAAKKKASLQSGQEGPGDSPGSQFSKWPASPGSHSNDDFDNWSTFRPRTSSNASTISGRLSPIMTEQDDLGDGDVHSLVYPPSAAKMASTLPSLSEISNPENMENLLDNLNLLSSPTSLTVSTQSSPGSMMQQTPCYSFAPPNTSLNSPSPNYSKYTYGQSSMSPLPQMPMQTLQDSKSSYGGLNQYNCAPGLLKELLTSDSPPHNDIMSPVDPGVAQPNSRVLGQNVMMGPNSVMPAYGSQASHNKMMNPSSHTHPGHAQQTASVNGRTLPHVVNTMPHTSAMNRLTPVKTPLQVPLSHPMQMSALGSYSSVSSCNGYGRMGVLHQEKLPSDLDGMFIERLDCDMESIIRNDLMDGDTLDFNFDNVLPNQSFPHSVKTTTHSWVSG
UniProt Q810B3: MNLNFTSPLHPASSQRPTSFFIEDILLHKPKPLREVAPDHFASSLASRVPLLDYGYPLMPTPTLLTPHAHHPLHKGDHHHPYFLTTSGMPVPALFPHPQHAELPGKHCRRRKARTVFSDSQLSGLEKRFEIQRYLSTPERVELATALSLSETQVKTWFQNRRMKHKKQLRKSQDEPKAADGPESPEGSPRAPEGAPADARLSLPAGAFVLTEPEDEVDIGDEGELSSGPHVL

How the values were obtained:
[1] = biological target: in vitro translated full length CREB protein (mouse) (UniProt Q01147); assay: GST pull down; GST::Bsx with 35S-Met in vitro translated CREB
[2] = biological target: in vitro translated full length FoxO1 protein (mouse) (UniProt Q9R1E0); assay: GST pull down; GST::Bsx on glutathione sepharose with 35S-Met in vitro translated FoxO1, autoradiography
[3] = biological target: in vitro translated full length CREB protein (mouse) (UniProt Q01147); assay: reciprocal GST pull down; GST::Bsx with 35S-Met in vitro translated CREB
[4] = biological target: in vitro translated full length CREB protein (mouse) (UniProt Q01147); assay: reciprocal GST pull down; GST::Bsx on glutathione sepharose with 35S-Met in vitro translated CREB, autoradiography
[5] = biological target: in vitro translated full length Bsx protein (mouse) (UniProt Q810B3); assay: GST pull down; GST::FoxO1 on glutathione sepharose with 35S-Met in vitro translated Bsx, autoradiography
[6] = biological target: in vitro translated full length Bsx protein (mouse) (UniProt Q810B3); assay: reciprocal GST pull down; GST::CREB on glutathione sepharose with 35S-Met in vitro translated Bsx, autoradiography
[7] = biological target: in vitro translated full length Bsx protein (mouse) (UniProt Q810B3); assay: reciprocal GST pull down; GST::CREB with 35S-Met in vitro translated Bsx
[8] = biological target: in vitro translated full length Bsx protein (mouse) (UniProt Q810B3); assay: GST pull down; GST::CREB with 35S-Met in vitro translated Bsx

## GST::Bsx (full length mouse Bsx expressed and purified as GST fusion protein) (from UniProt Q810B3 1-232)
[1]
  binding: binds
[2]
  binding: binds
[3]
  binding: binds
[4]
  binding: binds

## GST::FoxO1 (full length mouse Foxo1 expressed and purified as GST fusion protein) (from UniProt Q9R1E0 1-652)
[5]
  binding: binds

## GST::CREB (full length mouse CREB expressed and purified as GST fusion protein) (from UniProt Q01147 1-327)
[6]
  binding: binds
[7]
  binding: binds
[8]
  binding: binds
